Measured values as given in paper PMC10155438.
Results are given in words; binding and its absence hold for the method and conditions named. Binding seen in cells or lysates may run through a third protein. Some results given as binding are weak or reduced against the parent protein; the word gives no strength.

Protein sequences, listed by entry. Tags and fused reporters are not part of them.
UniProt P42224: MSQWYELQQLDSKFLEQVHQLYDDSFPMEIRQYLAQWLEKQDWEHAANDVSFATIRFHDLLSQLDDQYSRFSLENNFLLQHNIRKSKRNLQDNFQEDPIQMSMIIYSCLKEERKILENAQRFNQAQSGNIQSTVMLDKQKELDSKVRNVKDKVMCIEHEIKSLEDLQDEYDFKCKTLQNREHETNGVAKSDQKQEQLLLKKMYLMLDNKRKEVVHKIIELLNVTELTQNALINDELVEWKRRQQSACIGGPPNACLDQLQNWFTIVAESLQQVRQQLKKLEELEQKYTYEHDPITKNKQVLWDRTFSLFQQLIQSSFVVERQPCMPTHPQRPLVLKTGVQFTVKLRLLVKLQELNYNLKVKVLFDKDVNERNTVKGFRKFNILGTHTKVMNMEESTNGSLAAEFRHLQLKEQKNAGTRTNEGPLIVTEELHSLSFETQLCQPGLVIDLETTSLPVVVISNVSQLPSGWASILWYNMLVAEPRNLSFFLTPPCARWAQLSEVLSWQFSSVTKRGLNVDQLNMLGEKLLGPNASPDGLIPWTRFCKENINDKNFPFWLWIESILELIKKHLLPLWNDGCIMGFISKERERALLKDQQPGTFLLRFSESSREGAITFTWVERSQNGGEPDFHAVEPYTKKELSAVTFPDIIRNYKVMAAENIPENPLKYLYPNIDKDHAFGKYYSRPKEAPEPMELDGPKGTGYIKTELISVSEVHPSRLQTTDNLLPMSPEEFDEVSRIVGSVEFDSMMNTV
UniProt P14618: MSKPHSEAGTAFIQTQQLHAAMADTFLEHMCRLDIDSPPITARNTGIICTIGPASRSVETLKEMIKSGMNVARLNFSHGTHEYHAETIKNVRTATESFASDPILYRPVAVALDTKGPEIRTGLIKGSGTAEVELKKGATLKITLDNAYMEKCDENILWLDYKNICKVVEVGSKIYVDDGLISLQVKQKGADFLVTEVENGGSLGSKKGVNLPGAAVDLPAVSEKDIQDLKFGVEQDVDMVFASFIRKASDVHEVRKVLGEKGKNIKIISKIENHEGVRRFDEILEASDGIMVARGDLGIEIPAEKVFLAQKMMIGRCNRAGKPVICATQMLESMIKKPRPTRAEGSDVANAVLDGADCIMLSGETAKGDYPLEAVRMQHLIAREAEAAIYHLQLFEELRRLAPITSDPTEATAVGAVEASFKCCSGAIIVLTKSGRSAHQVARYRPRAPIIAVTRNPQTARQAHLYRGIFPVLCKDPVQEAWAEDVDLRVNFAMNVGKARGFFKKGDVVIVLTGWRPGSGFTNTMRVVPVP

Biological target: signal transducer and activator of transcription 1 (human (endogenous in HL-60)) (UniProt P42224)
Assay: co-IP; IP/CoIP kit (Absin); endogenous proteins of dHL-60 cells untreated, treated with LPS (1ug/ml) for 6 h, pretreated with DASA-58 (20uM) 0.5 h before LPS, or treated with DASA-58 alone; antibodies against PKM2 (Cell Signaling Technology) and STAT1 (Abcam), IgG isotype control; which antibody precipitated is not stated

binding: binds
Substance: pyruvate kinase M2 (from UniProt P14618 1-531) (enzyme)
